This is one part of the list.
Compound: Cc1cc(ccc1-c1ccccc1)C(=O)N1CCCN(CC1)C(=O)CCl [compound 10]
Assay: probe-labelled cysteine peptide fold change vs DMSO (competition) (log2 fold change); higher = less target engagement (more negative = stronger competition)
Conditions: THP-1, incubation time: 4 h
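Note: competitive profiling in live THP-1 cells: cysteine peptides tagged with an iodoacetamide desthiobiotin (IA-DTB) probe, intensity after compound treatment relative to DMSO-treated cells.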

Sequences of proteins named here, by UniProt entry; tags and fusion partners are left off. A change or cut given only in a name is not applied to a line headed by its entry.
UniProt Q9Y2I7: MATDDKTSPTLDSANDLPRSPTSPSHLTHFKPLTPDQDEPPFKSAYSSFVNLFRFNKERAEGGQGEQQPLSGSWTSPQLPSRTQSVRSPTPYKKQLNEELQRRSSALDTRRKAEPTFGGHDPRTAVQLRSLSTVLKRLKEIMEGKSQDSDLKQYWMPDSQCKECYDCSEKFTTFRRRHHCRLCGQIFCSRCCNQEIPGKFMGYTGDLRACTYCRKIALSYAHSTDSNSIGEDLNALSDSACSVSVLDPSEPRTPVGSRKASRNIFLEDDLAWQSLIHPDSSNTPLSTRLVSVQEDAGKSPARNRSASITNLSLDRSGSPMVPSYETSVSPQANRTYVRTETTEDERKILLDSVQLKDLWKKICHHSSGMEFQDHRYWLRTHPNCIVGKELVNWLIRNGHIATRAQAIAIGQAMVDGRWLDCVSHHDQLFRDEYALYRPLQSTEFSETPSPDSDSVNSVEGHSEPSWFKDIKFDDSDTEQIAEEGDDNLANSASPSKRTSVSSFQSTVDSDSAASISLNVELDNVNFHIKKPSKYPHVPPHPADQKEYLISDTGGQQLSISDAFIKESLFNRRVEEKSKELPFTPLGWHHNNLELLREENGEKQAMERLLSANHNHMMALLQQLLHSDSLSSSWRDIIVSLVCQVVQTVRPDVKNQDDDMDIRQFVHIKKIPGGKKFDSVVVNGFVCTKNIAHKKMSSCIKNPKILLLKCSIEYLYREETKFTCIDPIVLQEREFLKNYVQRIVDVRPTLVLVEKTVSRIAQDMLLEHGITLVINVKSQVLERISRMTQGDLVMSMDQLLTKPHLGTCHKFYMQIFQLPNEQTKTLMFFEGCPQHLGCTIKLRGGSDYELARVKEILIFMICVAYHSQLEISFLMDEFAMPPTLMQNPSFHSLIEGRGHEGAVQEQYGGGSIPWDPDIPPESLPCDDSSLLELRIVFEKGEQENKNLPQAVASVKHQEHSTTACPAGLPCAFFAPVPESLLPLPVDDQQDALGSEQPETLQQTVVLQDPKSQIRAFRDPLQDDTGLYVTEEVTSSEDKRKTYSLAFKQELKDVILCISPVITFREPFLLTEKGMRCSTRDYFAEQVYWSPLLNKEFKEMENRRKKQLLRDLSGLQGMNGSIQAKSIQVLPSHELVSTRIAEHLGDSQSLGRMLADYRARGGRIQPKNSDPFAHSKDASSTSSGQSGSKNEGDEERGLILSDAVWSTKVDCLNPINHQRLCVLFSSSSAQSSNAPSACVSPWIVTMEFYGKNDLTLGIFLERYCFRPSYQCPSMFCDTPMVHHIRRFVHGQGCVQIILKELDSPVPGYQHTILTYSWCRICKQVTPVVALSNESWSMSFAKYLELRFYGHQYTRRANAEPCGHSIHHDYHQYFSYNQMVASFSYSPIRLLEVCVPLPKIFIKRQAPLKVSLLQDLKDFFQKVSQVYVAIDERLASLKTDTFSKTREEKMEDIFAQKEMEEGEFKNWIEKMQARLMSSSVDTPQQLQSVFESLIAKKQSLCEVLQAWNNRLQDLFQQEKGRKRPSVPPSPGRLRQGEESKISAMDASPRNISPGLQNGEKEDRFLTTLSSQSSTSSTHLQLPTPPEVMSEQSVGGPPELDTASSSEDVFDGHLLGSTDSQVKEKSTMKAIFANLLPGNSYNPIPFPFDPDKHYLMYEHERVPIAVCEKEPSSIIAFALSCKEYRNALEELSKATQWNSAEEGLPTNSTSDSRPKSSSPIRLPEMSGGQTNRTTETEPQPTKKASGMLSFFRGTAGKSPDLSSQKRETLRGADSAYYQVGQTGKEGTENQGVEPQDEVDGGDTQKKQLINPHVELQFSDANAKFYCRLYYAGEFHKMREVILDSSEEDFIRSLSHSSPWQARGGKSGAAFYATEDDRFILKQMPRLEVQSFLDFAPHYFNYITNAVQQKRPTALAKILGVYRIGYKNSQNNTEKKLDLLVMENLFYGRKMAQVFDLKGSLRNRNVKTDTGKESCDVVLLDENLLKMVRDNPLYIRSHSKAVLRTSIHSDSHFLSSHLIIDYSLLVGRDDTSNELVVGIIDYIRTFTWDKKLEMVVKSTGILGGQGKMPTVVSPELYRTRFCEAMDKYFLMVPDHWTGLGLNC
UniProt Q8TD55: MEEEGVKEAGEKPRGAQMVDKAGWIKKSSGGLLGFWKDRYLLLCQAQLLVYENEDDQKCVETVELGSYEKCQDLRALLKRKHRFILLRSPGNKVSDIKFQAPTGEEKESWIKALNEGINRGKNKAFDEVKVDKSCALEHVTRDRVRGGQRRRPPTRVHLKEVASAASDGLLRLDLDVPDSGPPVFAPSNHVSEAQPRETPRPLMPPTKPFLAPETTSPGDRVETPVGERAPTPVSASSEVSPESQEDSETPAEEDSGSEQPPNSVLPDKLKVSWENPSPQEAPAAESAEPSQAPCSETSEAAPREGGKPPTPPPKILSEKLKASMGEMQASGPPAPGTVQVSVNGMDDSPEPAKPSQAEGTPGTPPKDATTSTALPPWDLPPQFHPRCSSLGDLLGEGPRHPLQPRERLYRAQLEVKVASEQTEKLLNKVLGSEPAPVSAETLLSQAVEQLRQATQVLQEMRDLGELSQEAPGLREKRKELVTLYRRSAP
UniProt O94903: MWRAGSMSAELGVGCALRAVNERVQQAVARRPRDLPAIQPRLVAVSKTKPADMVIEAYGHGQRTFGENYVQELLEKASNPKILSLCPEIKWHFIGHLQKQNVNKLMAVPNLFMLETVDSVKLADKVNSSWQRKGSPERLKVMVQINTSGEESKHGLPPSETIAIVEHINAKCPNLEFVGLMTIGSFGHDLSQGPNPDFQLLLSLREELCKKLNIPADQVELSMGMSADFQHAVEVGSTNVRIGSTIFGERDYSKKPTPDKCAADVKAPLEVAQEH
UniProt Q8TCS8: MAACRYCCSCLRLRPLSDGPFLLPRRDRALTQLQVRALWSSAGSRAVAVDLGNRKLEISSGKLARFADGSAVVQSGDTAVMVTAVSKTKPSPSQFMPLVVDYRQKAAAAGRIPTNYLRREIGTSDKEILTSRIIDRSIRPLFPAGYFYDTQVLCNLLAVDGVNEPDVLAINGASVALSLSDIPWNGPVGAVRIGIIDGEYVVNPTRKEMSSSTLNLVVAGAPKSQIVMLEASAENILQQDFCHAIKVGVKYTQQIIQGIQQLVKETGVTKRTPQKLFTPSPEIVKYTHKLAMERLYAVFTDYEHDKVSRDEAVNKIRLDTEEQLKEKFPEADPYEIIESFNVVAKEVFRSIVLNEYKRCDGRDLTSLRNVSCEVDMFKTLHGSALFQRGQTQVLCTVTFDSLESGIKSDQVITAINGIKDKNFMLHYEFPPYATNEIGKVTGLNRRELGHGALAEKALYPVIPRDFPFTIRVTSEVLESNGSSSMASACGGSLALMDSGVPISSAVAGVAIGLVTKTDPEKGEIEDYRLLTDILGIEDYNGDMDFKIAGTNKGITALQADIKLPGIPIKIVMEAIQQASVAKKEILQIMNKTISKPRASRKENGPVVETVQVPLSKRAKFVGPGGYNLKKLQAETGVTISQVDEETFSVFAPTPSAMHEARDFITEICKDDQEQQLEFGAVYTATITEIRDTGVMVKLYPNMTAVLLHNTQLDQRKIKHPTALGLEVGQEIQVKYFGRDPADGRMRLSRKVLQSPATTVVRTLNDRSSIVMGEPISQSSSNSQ
UniProt Q03405, whole entry, looked up: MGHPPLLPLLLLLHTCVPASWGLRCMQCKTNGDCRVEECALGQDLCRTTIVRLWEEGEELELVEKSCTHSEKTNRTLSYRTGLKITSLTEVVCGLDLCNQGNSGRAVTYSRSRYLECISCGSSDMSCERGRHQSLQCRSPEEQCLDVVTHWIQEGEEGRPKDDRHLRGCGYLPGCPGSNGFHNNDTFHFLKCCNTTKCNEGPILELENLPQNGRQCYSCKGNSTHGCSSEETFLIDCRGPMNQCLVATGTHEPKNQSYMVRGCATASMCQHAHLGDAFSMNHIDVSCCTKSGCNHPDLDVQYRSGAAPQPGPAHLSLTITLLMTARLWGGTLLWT
UniProt P00747, whole entry, looked up: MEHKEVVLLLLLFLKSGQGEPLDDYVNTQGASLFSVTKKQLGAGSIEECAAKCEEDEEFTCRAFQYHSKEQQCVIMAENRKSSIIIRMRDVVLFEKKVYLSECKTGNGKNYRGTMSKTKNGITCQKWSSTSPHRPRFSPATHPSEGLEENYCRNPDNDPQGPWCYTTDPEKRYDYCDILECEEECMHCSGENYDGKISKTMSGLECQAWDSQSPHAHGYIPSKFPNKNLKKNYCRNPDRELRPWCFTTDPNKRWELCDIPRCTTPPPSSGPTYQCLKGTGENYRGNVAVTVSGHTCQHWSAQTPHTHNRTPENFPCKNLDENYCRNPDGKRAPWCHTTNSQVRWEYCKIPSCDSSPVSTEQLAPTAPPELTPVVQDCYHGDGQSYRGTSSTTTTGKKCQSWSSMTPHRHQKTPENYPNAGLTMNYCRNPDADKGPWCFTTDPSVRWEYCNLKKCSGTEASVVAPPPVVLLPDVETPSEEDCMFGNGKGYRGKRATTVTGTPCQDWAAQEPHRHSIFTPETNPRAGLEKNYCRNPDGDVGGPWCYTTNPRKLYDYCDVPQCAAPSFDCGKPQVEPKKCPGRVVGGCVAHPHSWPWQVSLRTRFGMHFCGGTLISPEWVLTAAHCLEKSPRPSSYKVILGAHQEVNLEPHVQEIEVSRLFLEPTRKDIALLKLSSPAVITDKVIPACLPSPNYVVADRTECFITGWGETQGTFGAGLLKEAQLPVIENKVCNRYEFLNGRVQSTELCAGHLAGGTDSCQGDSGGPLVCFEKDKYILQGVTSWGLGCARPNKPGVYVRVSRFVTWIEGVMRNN
UniProt Q9Y263: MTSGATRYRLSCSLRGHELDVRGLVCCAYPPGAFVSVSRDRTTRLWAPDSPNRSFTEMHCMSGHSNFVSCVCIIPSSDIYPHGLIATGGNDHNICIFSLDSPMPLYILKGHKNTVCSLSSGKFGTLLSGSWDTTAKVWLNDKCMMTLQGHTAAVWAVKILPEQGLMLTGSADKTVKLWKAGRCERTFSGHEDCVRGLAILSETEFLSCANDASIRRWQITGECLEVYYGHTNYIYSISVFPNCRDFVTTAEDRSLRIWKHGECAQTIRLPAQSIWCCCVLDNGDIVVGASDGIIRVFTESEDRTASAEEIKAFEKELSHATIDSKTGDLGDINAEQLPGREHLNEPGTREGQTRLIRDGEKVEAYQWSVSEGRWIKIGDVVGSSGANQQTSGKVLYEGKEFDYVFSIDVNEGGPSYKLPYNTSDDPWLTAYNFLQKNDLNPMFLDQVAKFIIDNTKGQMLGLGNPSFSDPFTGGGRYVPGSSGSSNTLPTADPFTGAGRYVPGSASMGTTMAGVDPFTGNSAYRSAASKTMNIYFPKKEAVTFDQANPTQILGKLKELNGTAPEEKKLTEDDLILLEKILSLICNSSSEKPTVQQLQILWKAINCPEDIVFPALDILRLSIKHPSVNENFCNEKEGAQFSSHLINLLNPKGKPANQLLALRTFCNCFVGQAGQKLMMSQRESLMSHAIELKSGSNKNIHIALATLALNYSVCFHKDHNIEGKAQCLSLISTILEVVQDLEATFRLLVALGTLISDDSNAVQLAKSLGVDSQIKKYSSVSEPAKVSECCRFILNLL
UniProt O00469: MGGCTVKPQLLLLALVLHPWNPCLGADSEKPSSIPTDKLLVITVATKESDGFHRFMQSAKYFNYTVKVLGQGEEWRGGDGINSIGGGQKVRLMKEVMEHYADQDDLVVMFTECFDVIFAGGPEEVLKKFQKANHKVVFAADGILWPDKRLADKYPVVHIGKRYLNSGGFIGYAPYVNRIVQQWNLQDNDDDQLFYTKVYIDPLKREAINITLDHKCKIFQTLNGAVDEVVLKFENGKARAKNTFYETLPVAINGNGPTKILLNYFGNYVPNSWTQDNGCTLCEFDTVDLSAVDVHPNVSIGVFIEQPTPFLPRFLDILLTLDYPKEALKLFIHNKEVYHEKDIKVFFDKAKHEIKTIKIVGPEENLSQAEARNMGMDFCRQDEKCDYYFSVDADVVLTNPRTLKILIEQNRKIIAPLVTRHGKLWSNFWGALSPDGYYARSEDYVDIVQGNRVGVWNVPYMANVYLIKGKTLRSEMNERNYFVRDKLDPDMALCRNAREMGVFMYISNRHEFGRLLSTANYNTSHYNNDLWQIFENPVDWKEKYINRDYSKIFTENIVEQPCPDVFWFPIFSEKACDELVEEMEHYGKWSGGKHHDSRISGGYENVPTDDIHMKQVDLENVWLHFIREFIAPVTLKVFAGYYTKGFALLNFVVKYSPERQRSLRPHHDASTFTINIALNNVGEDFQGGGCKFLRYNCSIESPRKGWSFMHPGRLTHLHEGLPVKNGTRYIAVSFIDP
UniProt Q15126: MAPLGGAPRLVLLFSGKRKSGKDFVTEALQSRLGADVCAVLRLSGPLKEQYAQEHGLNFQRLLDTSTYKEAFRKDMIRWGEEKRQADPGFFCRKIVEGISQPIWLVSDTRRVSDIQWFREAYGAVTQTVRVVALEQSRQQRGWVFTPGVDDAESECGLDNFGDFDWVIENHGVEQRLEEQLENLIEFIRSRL

Target	probe-labelled cysteine peptide fold change (10 µM)	probe-labelled cysteine peptide fold change (50 µM)
PLCG2_P16885_551_LLQEYCMETGGK (UniProt P16885)	-0.0349	-0.0546
PIKFYVE_Q9Y2I7_831_TLMFFEGCPQHLGCTIK (UniProt Q9Y2I7)	0.000926	-0.183
PNKP_Q96T60_445_AAGVPCR (UniProt Q96T60)	-0.0274	-0.232
PLEC_Q15149_3299_GCLDEETSR (UniProt Q15149)	-0.283	-0.509
PIK3R4_Q99570_955_REQCNAER (UniProt Q99570)	-0.101	0.153
PLXNA1_Q9UIW2_1525_GLDCDTVTQAK (UniProt Q9UIW2)	-0.217	-0.117
PLEKHO2_Q8TD55_59_CVETVELGSYEK (UniProt Q8TD55)	-0.241	-0.137
PITRM1_Q5JRX3_869_THFLMPFPVNYVGECIR (UniProt Q5JRX3)	-0.0756	0.159
PLPBP_O94903_86_ILSLCPEIK (UniProt O94903)	0.0604	-0.0311
PNPT1_Q8TCS8_372_NVSCEVDMFK (UniProt Q8TCS8)	0.0679	0.00758
PINX1_Q96BK5_94_NNHLGLGATINNEDNWIAHQDDFNQLLAELNTCHGQETTDSSDKK (UniProt Q96BK5)	0.15	0.124
PMPCA_Q10713_225_FCPTENVAK (UniProt Q10713)	-0.0665	-0.0517
POC5_Q8NA72_360_GVCALNLEAMTIFQNR (UniProt Q8NA72)	-0.35	-0.269
PLOD3_O60568_494_DVFSGSDTDPDMAFCK (UniProt O60568)	-0.168	-0.00128
PLCB3_Q01970_360_CVELDVWK (UniProt Q01970)	0.0505	-0.317
POC1A_Q8NBT0_66_DAVTCVNFSPSGHLLASGSR (UniProt Q8NBT0)	-0.154	-0.278
PLXNB2_O15031_1504+1506_GQPCSCWPRPDSVVLEWRPGSTAQILSDLDLTSQR (UniProt O15031)	-0.0809	-0.762
PLAUR_Q03405_98_ITSLTEVVCGLDLCNQGNSGR (UniProt Q03405)	-0.279	-0.355
PLG_P00747_398_CQSWSSMTPHR (UniProt P00747)	-0.352	-0.442
PLD3_Q8IV08_487_SQLEAIFLRDWDSPYSHDLDTSADSVGNACR (UniProt Q8IV08)	-0.352	-0.521
PKM_P14618_424_CCSGAIIVLTK (UniProt P14618)	-0.194	-0.585
PLAA_Q9Y263_208_GLAILSETEFLSCANDASIRR (UniProt Q9Y263)	0.0636	-0.205
PLOD2_O00469_576_ACDELVEEMEHYGK (UniProt O00469)	-0.195	0.0423
PLXNB2_O15031_555_RAQGEVQLTVSPLPALSEEDELLCLFGESPPHPAR (UniProt O15031)	0.228	0.529
PMVK_Q15126_38_LGADVCAVLR (UniProt Q15126)	-0.0805	0.0155

Complete entries from above. Order of values: probe-labelled cysteine peptide fold change (10 µM) | probe-labelled cysteine peptide fold change (50 µM)
PLEKHO2_Q8TD55_59_CVETVELGSYEK (UniProt Q8TD55) as listed: -0.241 | -0.137
PLAA_Q9Y263_208_GLAILSETEFLSCANDASIRR (UniProt Q9Y263) as listed: 0.0636 | -0.205

— the supplement of paper PMC12067093, “Discovery and optimisation of a covalent ligand for TRIM25 and its application to targeted protein ubiquitination” (Chemical Science, 2025)
